We go through 1 substance from article doi:10.1101/575910 (bioRxiv, 2019).

The chains behind the UniProt entries cited, without tags or fusion partners. Where a name states a change or a piece, a line headed by the entry shows the natural chain unless it says otherwise. A line that says so, or that is headed by a name, gives the form on record, which may keep a tag or linker. Residues count along the entry.
UniProt Q802Y8, residues 8-401: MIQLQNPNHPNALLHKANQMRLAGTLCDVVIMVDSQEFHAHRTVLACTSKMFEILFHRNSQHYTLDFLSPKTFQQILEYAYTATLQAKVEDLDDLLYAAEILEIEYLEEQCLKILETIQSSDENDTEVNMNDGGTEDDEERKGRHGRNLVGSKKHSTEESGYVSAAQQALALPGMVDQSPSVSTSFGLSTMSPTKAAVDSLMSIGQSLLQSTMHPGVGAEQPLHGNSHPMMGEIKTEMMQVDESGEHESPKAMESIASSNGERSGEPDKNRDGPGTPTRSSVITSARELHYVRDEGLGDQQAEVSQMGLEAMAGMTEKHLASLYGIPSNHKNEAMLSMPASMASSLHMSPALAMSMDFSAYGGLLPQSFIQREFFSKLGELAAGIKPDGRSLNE
N-terminal region of Cul3 (Cul3a residues 1-379) (F6NVK8, form named): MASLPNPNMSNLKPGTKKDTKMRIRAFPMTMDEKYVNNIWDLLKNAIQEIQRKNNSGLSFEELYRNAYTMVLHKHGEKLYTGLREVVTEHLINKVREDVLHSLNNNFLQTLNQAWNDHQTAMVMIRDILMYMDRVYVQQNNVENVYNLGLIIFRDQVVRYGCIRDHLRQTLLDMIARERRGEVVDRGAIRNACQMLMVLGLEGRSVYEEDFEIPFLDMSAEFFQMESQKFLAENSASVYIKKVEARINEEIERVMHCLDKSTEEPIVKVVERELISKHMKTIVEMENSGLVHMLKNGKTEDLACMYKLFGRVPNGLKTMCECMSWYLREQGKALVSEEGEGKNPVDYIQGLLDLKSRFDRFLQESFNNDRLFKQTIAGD

In this assay the target is Plzf ΔZF (Plzfa residues 8-401) (zebrafish) (UniProt Q802Y8). The assay is described as follows: MST.

Results are given in words; binding and its absence hold for the method and conditions named. Some results given as binding are weak or reduced against the parent protein; the word gives no strength.

In the case of “N-terminal region of Cul3 (Cul3a residues 1-379) (from UniProt F6NVK8 1-379) (domain or fragment)”, the binding entry is on record as “binds”.
